The source of these data is PubChem BioAssay AID2685 (National Center for Advancing Translational Sciences (NCATS), 2010).

The assay in a line: qHTS Assay for Lipid Storage Modulators in Drosophila S3 Cells.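 As to cell number change: cells counted by Cell Tracker Red CMTPX staining in the red channel.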 Conditions: BODIPY lipid droplet fluorescence, 18-24 h; for cell number change: measured here: cell count max response, cells fed with added oleic acid. In short, it runs like this:
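Laser-scanning cytometry quantifies lipid droplet accumulation (500–530 nm total intensity; droplet/cell object ratio) in oleic acid-fed (400 uM added) Drosophila S3 cells treated with a concentration series. 20 uM Triacsin C defined 100% inhibition.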

The mark [1] stands for this setting: measured here: cell number channel AC50, cells fed with added oleic acid.
The mark [2] stands for this setting: measured here: lipid fluorescence (Fed channel) AC50, cells fed with added oleic acid.

Molecules are shown by their SMILES. The list shows a part of the results. Further columns of the screen follow, without active or inactive calls. Most of these compounds were active or inconclusive in the main read-out, so they are no random draw. The note in brackets gives the kind of curve behind each potency; many fits are weak.

Usually AC50 stands for the midpoint of the concentration-response curve, whichever way the signal moves. A higher AC50 goes with activity only at high concentration. Take `CCOc1ccc(S(=O)(=O)NC(C)(C)C)cc1-c1nc2c(C(C)(C)C)nn(C)c2c(=O)[nH]1`: the cell number change is -34.7%. For the same molecule, the AC50 under setting [1] is 23.1 µM [falling, single point]. Further, the AC50 under setting [2] was 29.1 µM [falling, single point].

Regarding `COc1ccc(Cl)cc1NC(=O)CCN1CCN(Cc2ccccc2)CC1`, the cell number change is -17%. For the same molecule, the half-maximal activity concentration (AC50) under setting [2] is 20.6 µM [falling, single point].

With `Cc1cc(=O)[nH]c(SCC(=O)Nc2ncc(S(=O)(=O)c3ccc([N+](=O)[O-])cc3)s2)n1`, the cell number change came to 34%. Further, the concentration at half-maximal activity (AC50) under setting [1] was 29.1 µM [rising, single point]. Under setting [2], the half-maximal activity concentration (AC50) was 29.1 µM [rising, single point].

For `O=C(OCC(=O)N1CCCCCC1)c1ccc(F)cc1F`, the cell number change was -25.7%.

Regarding `Cn1c(SCC(=O)N2CC(=O)Nc3ccccc32)nnc1C(F)(F)F`, the cell number change came to 3.21%.

With `CCOC(=O)c1cc(S(=O)(=O)N2CCN(Cc3ccccc3)CC2)cn1C`, the cell number change amounted to 9.22%. Moreover, the AC50 under setting [2] is 5.17 µM [rising, single point].

Take `CC(C)=C1SC(N2CCCCC2)=NC1=O`: the cell number change was -58%. The half-maximal activity concentration (AC50) under setting [1] is 32.6 µM [falling, single point]. Also, the AC50 under setting [2] was 29.1 µM [falling, partial curve].

Take `COc1ccc(C(c2nnnn2Cc2ccccc2)N2CCN(C(=O)c3ccco3)CC2)cc1OC` (configuration not stated): the cell number change was -7.95%. In addition, under setting [2], the AC50 is 0.0058 µM [rising, full curve, poor fit].

On to `O=C1CC(Sc2nnc(-c3ccccc3)o2)C(=O)N1c1ccccc1` (configuration not stated), for which the cell number change is -220%. The AC50 under setting [1] was 29.1 µM [falling, single point]. The AC50 under setting [2] is 29.1 µM [falling, single point].

For `CC(C)CC(C(=O)NC1CCCC1)N(Cc1ccc2c(c1)OCO2)C(=O)c1snc(C(N)=O)c1N` (configuration not stated), the cell number change was -35.2%. Moreover, under setting [1], the half-maximal activity concentration (AC50) is 23.1 µM [falling, single point].

As for `CC(C)(C)NC(=O)C1CCN(S(=O)(=O)c2cccc3nsnc23)CC1`, the cell number change was -18.3%.

In the case of `COc1ccccc1NS(=O)(=O)c1cccc(NC(=O)c2nc3nc(C)cc(C)n3n2)c1`, the cell number change was -5.79%. The AC50 under setting [1] was 0.92 µM [rising, partial curve]. Also, under setting [2], the AC50 is 16.4 µM [falling, single point].

Regarding `O=S1(=O)C[C@@H](O)[C@@H](Nc2ccc(Cl)cc2)C1`, the cell number change was -9.73%.

For `N#Cc1ccc(-c2csc(NC(=O)c3cc(-c4cccs4)nc4ccccc34)n2)cc1`, the cell number change was 38.4%. Also, under setting [1], the AC50 is 0.366 µM [rising, full curve]. In addition, the AC50 under setting [2] is 0.164 µM [rising, full curve, poor fit].

On to `CCOC(=O)c1ccccc1NC(=O)Cn1cnc2c(cnn2C(C)(C)C)c1=O`, for which the cell number change was -35.6%. Further, under setting [2], the concentration at half-maximal activity (AC50) was 9.2 µM [falling, partial curve, poor fit].
